Source: ChEMBL document CHEMBL3988442, “University of Dundee, Small-Polar-MMV Screening Library” (2021).

By UniProt entry, the sequences of proteins in these tests, tags left out. Residues count along the entry.
UniProt P9WPC5, whole entry: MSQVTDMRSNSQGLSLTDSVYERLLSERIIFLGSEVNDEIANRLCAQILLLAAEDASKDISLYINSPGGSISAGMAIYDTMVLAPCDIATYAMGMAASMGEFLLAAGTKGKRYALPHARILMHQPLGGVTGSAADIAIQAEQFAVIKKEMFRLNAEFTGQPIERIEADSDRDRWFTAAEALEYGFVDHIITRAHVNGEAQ
UniProt P9WPC3, whole entry partner: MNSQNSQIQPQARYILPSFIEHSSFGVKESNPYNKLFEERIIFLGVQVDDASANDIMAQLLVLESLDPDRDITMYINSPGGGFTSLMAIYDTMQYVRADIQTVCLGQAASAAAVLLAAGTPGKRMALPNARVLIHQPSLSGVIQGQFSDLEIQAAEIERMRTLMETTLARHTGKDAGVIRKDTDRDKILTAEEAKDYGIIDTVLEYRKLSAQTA
UniProt P9WNZ1, whole entry: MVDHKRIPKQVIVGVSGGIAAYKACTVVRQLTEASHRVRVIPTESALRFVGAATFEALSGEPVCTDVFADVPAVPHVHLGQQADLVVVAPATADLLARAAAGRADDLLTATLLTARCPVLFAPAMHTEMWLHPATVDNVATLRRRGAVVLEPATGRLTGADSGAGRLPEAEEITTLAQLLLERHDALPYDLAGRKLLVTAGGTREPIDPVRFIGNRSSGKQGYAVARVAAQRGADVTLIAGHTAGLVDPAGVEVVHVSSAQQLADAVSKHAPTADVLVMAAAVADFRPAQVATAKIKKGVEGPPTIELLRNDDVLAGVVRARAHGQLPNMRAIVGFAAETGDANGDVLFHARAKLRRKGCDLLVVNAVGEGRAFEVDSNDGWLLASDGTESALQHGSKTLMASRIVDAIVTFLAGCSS
UniProt A4I591, 1-473: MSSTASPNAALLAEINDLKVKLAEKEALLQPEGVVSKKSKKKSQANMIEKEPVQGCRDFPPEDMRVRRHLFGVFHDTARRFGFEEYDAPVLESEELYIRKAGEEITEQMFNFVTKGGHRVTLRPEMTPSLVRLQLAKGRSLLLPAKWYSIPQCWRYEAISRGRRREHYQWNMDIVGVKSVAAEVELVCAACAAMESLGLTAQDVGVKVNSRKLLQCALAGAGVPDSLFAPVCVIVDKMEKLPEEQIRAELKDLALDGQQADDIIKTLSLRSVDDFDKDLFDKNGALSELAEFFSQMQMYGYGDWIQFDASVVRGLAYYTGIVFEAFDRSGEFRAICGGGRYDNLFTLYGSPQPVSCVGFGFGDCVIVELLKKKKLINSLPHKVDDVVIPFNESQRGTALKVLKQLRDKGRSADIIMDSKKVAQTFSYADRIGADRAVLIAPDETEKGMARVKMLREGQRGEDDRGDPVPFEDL

ClpP1P2: 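ClpP1P2, Mycobacterium tuberculosis (UniProt P9WPC5 and UniProt P9WPC3). Protease assay of ClpP1P2, read by the AMC dye that it sets free. Compounds at 50 µM. Direction is inferred from only a few compounds that gave an IC50; most scored high, so higher reads as stronger inhibition. Most other retested compounds had strongly negative values. Of about 69,000 compounds tested this way, about 10 (0.015%) reached 50% or more in at least one test.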
CoaBC: 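Coenzyme A biosynthesis protein CoaBC, Mycobacterium tuberculosis (UniProt P9WNZ1). Enzyme assay of CoaBC with a phosphate dye (Biomol Green) read at 650 nm. Compounds at 30 µM. Direction is inferred from only a few compounds that gave an IC50; most scored high, so higher reads as stronger inhibition. Most strong results did not repeat in a second test. Size under these conditions: about 67,000 compounds, about 40 of them at 50% or above in at least one test.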
Leishmania in macrophages: 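Cell assay of Leishmania donovani living inside macrophages; the read-out is not stated. Compounds at 30 µM. Direction is inferred from retests: higher values go with stronger inhibition. About 69,000 compounds were tested under these conditions; 1.5% (about 1,000) showed 50% or more at least once.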
LiHisRS: 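Histidine-tRNA ligase, Leishmania infantum (UniProt A4I591). Enzyme assay of histidyl-tRNA synthetase; the read-out is not stated. Tested at 30 µM. The record gives no direction; compounds that gave an IC50 in retests scored well above the rest, so higher reads as stronger inhibition. The assay is labelled LdHisRS but filed under L. infantum. Of about 69,000 compounds tested this way, about 410 (0.6%) reached 50% or more in at least one test.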

Values are the deposited “Percent Effect”, in %.
The record does not define 0% and 100%; most values in the screen are far below 50% and negative numbers occur (in some assays of this library far below -100).
This is an unselected part of the compounds tested.
Two or more numbers in one place are separate tests of the same structure; such repeats can differ widely.
A dash means the value is not listed here; it may have been measured.

With CS(=O)(=O)CCCNC(=O)NC1CC(c2cccc(Cl)c2)C1 (centres undefined) the screen gave ClpP1P2: 11.79%; CoaBC: 5.034%; Leishmania in macrophages: 20.43%; LiHisRS: 12.68%.
With CC(C)COC(C)C(=O)NCc1ccc(-n2cncn2)nc1 (centres undefined) the screen gave ClpP1P2: -2.081%; CoaBC: 1.08%; Leishmania in macrophages: -3.976%; LiHisRS: 3.306%.
With Cc1nc(C)n(CC2CCCN2Cc2cn3c(C)cccc3n2)n1 (centres undefined) the screen gave ClpP1P2: -2.256%; CoaBC: -3.781%; Leishmania in macrophages: 30.57%; LiHisRS: 12.16%.
With CCN1CCC(CNC(=O)C2(c3cccc(C)c3)CC2)C1 (centres undefined) the screen gave ClpP1P2: 1.4%; CoaBC: 5.744%; Leishmania in macrophages: 13.66%; LiHisRS: 18.92%.
With CCN1CCC2(CC1)CN(C(C)=O)c1ccc(C)cc12 the screen gave ClpP1P2: -6.544%; CoaBC: -3.055%; Leishmania in macrophages: 9.305%; LiHisRS: 2.632%.
With Cc1cc(CNC(=O)CCN2CCN(c3ccccn3)CC2)c(C)o1 the screen gave ClpP1P2: 4.779%; CoaBC: 0.3241%; Leishmania in macrophages: -5.047%; LiHisRS: 4.762%.
With Cc1nc(C2CCCN(C(=O)COCc3ccccc3Cl)C2)no1 (centres undefined) the screen gave ClpP1P2: -8.273%; CoaBC: 8.735%; Leishmania in macrophages: -7.608%; LiHisRS: 4.054%.
With Cc1nc(CN2CCC(CNC(=O)NCCC3CCC3)CC2)oc1C the screen gave ClpP1P2: -6.632%; CoaBC: -8.155%; Leishmania in macrophages: -71.27%; LiHisRS: 4.918%.
With c1ncc(-c2ccc(C3CNCCO3)nc2)cn1 (centres undefined) the screen gave ClpP1P2: -18.72%; CoaBC: 1.942%; LiHisRS: 1.449%.
With O=C1CSC(c2ccc(O)cc2)c2c(n(C3CCOCC3)[nH]c2=O)N1 (centres undefined) the screen gave ClpP1P2: -11.51%; CoaBC: 4.293%; Leishmania in macrophages: -12.27%; LiHisRS: 5.263%.
With O=C(NC1CC1)C1CCCN(c2cc(-n3cncn3)ncn2)C1 (centres undefined) the screen gave ClpP1P2: -14.68%; CoaBC: 8.668%; Leishmania in macrophages: 2.915% & -41.14%; LiHisRS: 6.957%.
With COc1cccc(-c2n[nH]cc2CNC2CCN(C3CC3)CC2)c1.Cl the screen gave Leishmania in macrophages: 11.19%.
With Cc1ccc(C(=O)N2CCC(c3nccn3C(C)C)CC2)c(=O)[nH]1 the screen gave ClpP1P2: -3.454%; CoaBC: 4.704%; Leishmania in macrophages: -16.94%; LiHisRS: 15.2%.
With CN(Cc1cnn(C)c1)C(=O)NC1CCN(Cc2ccccn2)CC1 the screen gave ClpP1P2: -8.45%; CoaBC: 2.169%; Leishmania in macrophages: -14.23%; LiHisRS: 8.219%.
With Cc1cnn(CC2CCCCN2CC(=O)Nc2nncs2)c1 (centres undefined) the screen gave ClpP1P2: -6.088%; CoaBC: 0.3745%; Leishmania in macrophages: 25.28%; LiHisRS: 11.57%.
With Clc1cccc(C(CNCc2cccnc2)N2CCOCC2)c1 (centres undefined) the screen gave ClpP1P2: 2.011%; CoaBC: 2.804%; Leishmania in macrophages: 17.77%; LiHisRS: 6.195%.
With CN(C)[C@H]1CCCCN(Cc2cnc(NCc3ccccc3)nc2)C1 the screen gave ClpP1P2: -8.395%; CoaBC: -0.4914%; Leishmania in macrophages: 5.346%; LiHisRS: 30.11%.
With CN(C)C(=O)N1C[C@@H]2CC[C@H](C1)N(C/C=C/c1ccc(F)cc1)C2 the screen gave ClpP1P2: 2.406%; CoaBC: 3.259%; LiHisRS: 14.71%.
With CC(C)c1nnc2n1CC(CNCc1ccc3c(c1)OCCO3)CC2 (centres undefined) the screen gave ClpP1P2: -8.558%; CoaBC: 10.91%; Leishmania in macrophages: 32.56%; LiHisRS: 7.08%.
With CC(O)CN1CCC(CN(C)CCC(=O)NC2CCCCC2)CC1 (centres undefined) the screen gave ClpP1P2: -3.074%; CoaBC: -11.61%; Leishmania in macrophages: -25.96%; LiHisRS: -4.167%.
With O=C(NC(Cc1ccsc1)c1nccs1)C1CC1 (centres undefined) the screen gave ClpP1P2: 3.767%; CoaBC: -2.206%; Leishmania in macrophages: -20.6%; LiHisRS: 11.46%.
With COc1cc(C(=O)Nc2c(C)noc2C)ccc1C the screen gave ClpP1P2: 4.677%; CoaBC: 1.028%; Leishmania in macrophages: 4.571%; LiHisRS: 16.85%.
With COc1ccc(F)c(CN2CCCC(O)(CNC3CCCCC3)C2=O)c1 (centres undefined) the screen gave ClpP1P2: -10.38%; CoaBC: -8.855%; Leishmania in macrophages: 10.71%; LiHisRS: -5.714%.
With CCS(=O)(=O)CCNC(=O)NC(C)c1cc(C)sc1C (centres undefined) the screen gave ClpP1P2: -9.137%; CoaBC: 3.69%; Leishmania in macrophages: -1.812%; LiHisRS: 19.51%.
With CS(=O)(=O)N1CC[C@]2(C[C@@H](OCC3CCC3)CO2)C1 the screen gave ClpP1P2: 6.246%; CoaBC: 3.965%; Leishmania in macrophages: 17.44%; LiHisRS: 20.75%.
With c1ccc(O[C@H]2C[C@@H]3CN(Cc4cnccn4)C[C@@H]3C2)cc1 the screen gave ClpP1P2: -50.3%; CoaBC: -1.607%; LiHisRS: 15.86%.
With Cc1ccc(C(=O)N2CCn3cc(CN4CCCCC4)nc3C2)o1 the screen gave ClpP1P2: -14.75%; CoaBC: -1.648%; LiHisRS: -0.9709%.
With CCn1c(CN2CCCC(O)(c3ccc(F)cc3)CC2)cnc1SC.O=C(O)CC(O)(CC(=O)O)C(=O)O (centres undefined) the screen gave Leishmania in macrophages: 19.09%.
With Cc1cnn(CCC(=O)N2C[C@H]3CC[C@@H]2CN(CC(=O)N(C)C)C3)c1 the screen gave ClpP1P2: 4.053%; CoaBC: 5.757%; LiHisRS: 15.38%.
With [H][C@]12CC[C@]([H])(C1)[C@H](Nc1cc(CC)nc3ccnn13)C2 the screen gave Leishmania in macrophages: 37.86%.
With Cc1cc(C)cc(OCC(=O)N2CCCN(CC(N)=O)CC2)c1 the screen gave ClpP1P2: 0.4082%; CoaBC: 2.405%; Leishmania in macrophages: 37.77%; LiHisRS: 10.84%.
With CN(C)CC(=O)N1CCN(CC(O)c2ccc(F)cc2)CC1 (centres undefined) the screen gave ClpP1P2: 12.53%; CoaBC: 3.316%; Leishmania in macrophages: 22.42%; LiHisRS: 14.55%.
With [H][C@@]12CCN(C(=O)c3ccc(C)o3)[C@]1([H])CCC(=O)N2CC1CC1 the screen gave Leishmania in macrophages: 8.604% & 15.48%.

Once more, the final 2:

Compound,ClpP1P2,CoaBC,Leishmania in macrophages,LiHisRS
CN(C)CC(=O)N1CCN(CC(O)c2ccc(F)cc2)CC1 (centres undefined),12.53%,3.316%,22.42%,14.55%
[H][C@@]12CCN(C(=O)c3ccc(C)o3)[C@]1([H])CCC(=O)N2CC1CC1,-,-,8.604% & 15.48%,-